{"source": "PubChem BioAssay AID1259308 (NCATS, 2017)", "aim": "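Candidate targets for better recombinant protein yield in mammalian cells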 (primary screen)", "system": "human HEK293 embryonic kidney cells stably expressing firefly luciferase (HEK-CMV-Luc2-Hygro)", "reagent": "single siRNA against human genes, 0.8 pmol siRNA per well", "duration": "72 h", "measured": "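Reporter luminescence and viable-cell signal on separate replicate plates, given as percent of non-targeting control and median/MAD z-scores, plus per-cell luciferase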", "scale": "total luciferase, z-score and total luciferase, % of control: higher = more reporter protein produced", "hit rule": "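Active when the median/MAD z-score for overall luciferase is greater than 3; a gene was taken forward for validation with new siRNAs if at least two of its three siRNAs passed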", "meaning of the calls": "active = raised luciferase; inactive = no rise", "note": "Here is one part, drawn at random, of about 59,000 reagents. About 1,510 of all reagents (2.6%) count as active. 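Calls use total luciferase alone and ignore viability, so some active siRNAs may act by altering cell number.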 Unmarked entries are inactive. Reagents against one gene are numbered here. Further read-outs or replicates are left out here."}
{"gene symbol": "PRRT2", "reagent no.": 1, "total luciferase, z-score": 0.367, "total luciferase, % of control": 89.2}
{"gene symbol": "PRRT2", "reagent no.": 2, "total luciferase, z-score": 0.782, "total luciferase, % of control": 97.4}
{"gene symbol": "PRRT2", "reagent no.": 3, "total luciferase, z-score": 1.33, "total luciferase, % of control": 108}
{"gene symbol": "CEBPE", "reagent no.": 1, "total luciferase, z-score": -0.502, "total luciferase, % of control": 71.9}
{"gene symbol": "CEBPE", "reagent no.": 2, "total luciferase, z-score": 0.355, "total luciferase, % of control": 89}
{"gene symbol": "CEBPE", "reagent no.": 3, "total luciferase, z-score": -0.369, "total luciferase, % of control": 74.5}
{"gene symbol": "AHSA2P", "reagent no.": 1, "total luciferase, z-score": -0.666, "total luciferase, % of control": 68.6}
{"gene symbol": "AHSA2P", "reagent no.": 2, "total luciferase, z-score": 1.82, "total luciferase, % of control": 118}
{"gene symbol": "AHSA2P", "reagent no.": 3, "total luciferase, z-score": -0.42, "total luciferase, % of control": 73.5}
{"gene symbol": "SRPRA", "reagent no.": 1, "total luciferase, z-score": -0.958, "total luciferase, % of control": 62.8}
{"gene symbol": "SRPRA", "reagent no.": 2, "total luciferase, z-score": 1.58, "total luciferase, % of control": 113}
{"gene symbol": "SRPRA", "reagent no.": 3, "total luciferase, z-score": -0.105, "total luciferase, % of control": 79.8}
{"gene symbol": "NLRP8", "reagent no.": 1, "total luciferase, z-score": -0.0107, "total luciferase, % of control": 81.7}
{"gene symbol": "NLRP8", "reagent no.": 2, "total luciferase, z-score": 0.00729, "total luciferase, % of control": 82}
{"gene symbol": "NLRP8", "reagent no.": 3, "total luciferase, z-score": -0.106, "total luciferase, % of control": 79.8}
{"gene symbol": "HPCA", "reagent no.": 1, "total luciferase, z-score": 1.3, "total luciferase, % of control": 108}
{"gene symbol": "HPCA", "reagent no.": 2, "total luciferase, z-score": 0.0866, "total luciferase, % of control": 83.6}
{"gene symbol": "HPCA", "reagent no.": 3, "total luciferase, z-score": -0.592, "total luciferase, % of control": 70.1}
{"gene symbol": "SPRED2", "reagent no.": 1, "total luciferase, z-score": -1.39, "total luciferase, % of control": 54.3}
{"gene symbol": "SPRED2", "reagent no.": 2, "total luciferase, z-score": 0.196, "total luciferase, % of control": 85.8}
{"gene symbol": "SPRED2", "reagent no.": 3, "total luciferase, z-score": -0.365, "total luciferase, % of control": 74.6}
{"gene symbol": "PSMD3", "reagent no.": 1, "total luciferase, z-score": 2.11, "total luciferase, % of control": 124}
{"gene symbol": "PSMD3", "reagent no.": 2, "total luciferase, z-score": 1.06, "total luciferase, % of control": 103}
{"gene symbol": "PSMD3", "reagent no.": 3, "total luciferase, z-score": 2.26, "total luciferase, % of control": 127}
{"gene symbol": "CD247", "reagent no.": 1, "total luciferase, z-score": -0.244, "total luciferase, % of control": 77}
{"gene symbol": "CD247", "reagent no.": 2, "total luciferase, z-score": -0.339, "total luciferase, % of control": 75.2}
{"gene symbol": "CD247", "reagent no.": 3, "total luciferase, z-score": 0.732, "total luciferase, % of control": 96.4}
{"gene symbol": "TMEM143", "reagent no.": 1, "total luciferase, z-score": -0.522, "total luciferase, % of control": 71.5}
{"gene symbol": "TMEM143", "reagent no.": 2, "total luciferase, z-score": -1.37, "total luciferase, % of control": 54.6}
{"gene symbol": "TMEM143", "reagent no.": 3, "total luciferase, z-score": 1.83, "total luciferase, % of control": 118}
{"gene symbol": "NFRKB", "reagent no.": 1, "total luciferase, z-score": 1.78, "total luciferase, % of control": 117}
{"gene symbol": "NFRKB", "reagent no.": 2, "total luciferase, z-score": -0.0692, "total luciferase, % of control": 80.5}
{"gene symbol": "NFRKB", "reagent no.": 3, "total luciferase, z-score": 0.307, "total luciferase, % of control": 88}
{"gene symbol": "ELF4", "reagent no.": 1, "total luciferase, z-score": -0.271, "total luciferase, % of control": 76.5}
{"gene symbol": "ELF4", "reagent no.": 2, "total luciferase, z-score": 0.78, "total luciferase, % of control": 97.4}
{"gene symbol": "ELF4", "reagent no.": 3, "total luciferase, z-score": -0.185, "total luciferase, % of control": 78.2}
{"gene symbol": "FOXL1", "reagent no.": 1, "total luciferase, z-score": 0.901, "total luciferase, % of control": 99.8}
{"gene symbol": "FOXL1", "reagent no.": 2, "total luciferase, z-score": -0.31, "total luciferase, % of control": 75.7}
{"gene symbol": "FOXL1", "reagent no.": 3, "total luciferase, z-score": 2.95, "total luciferase, % of control": 141}
{"gene symbol": "SLC9A8", "reagent no.": 1, "total luciferase, z-score": -0.204, "total luciferase, % of control": 77.8}
{"gene symbol": "SLC9A8", "reagent no.": 2, "total luciferase, z-score": -0.298, "total luciferase, % of control": 76}
{"gene symbol": "SLC9A8", "reagent no.": 3, "total luciferase, z-score": 0.223, "total luciferase, % of control": 86.3}

7 entries from above, reformatted.
{"gene symbol":"AHSA2P","reagent no.":1,"total luciferase, z-score":-0.666,"total luciferase, % of control":68.6}
{"gene symbol":"AHSA2P","reagent no.":2,"total luciferase, z-score":1.82,"total luciferase, % of control":118}
{"gene symbol":"AHSA2P","reagent no.":3,"total luciferase, z-score":-0.42,"total luciferase, % of control":73.5}
{"gene symbol":"SRPRA","reagent no.":1,"total luciferase, z-score":-0.958,"total luciferase, % of control":62.8}
{"gene symbol":"SRPRA","reagent no.":2,"total luciferase, z-score":1.58,"total luciferase, % of control":113}
{"gene symbol":"SRPRA","reagent no.":3,"total luciferase, z-score":-0.105,"total luciferase, % of control":79.8}
{"gene symbol":"NLRP8","reagent no.":1,"total luciferase, z-score":-0.0107,"total luciferase, % of control":81.7}
